# These are yes or no findings as the source states them, for the method shown. Binding seen in cells or lysates may run through a third protein. A yes stands for co-enrichment or nearness to the bait. Other partners may have been found. Sequences can lack the tags named with a protein.
# Chains of the proteins cited; added tags and fusions are not shown.
# UniProt P20700: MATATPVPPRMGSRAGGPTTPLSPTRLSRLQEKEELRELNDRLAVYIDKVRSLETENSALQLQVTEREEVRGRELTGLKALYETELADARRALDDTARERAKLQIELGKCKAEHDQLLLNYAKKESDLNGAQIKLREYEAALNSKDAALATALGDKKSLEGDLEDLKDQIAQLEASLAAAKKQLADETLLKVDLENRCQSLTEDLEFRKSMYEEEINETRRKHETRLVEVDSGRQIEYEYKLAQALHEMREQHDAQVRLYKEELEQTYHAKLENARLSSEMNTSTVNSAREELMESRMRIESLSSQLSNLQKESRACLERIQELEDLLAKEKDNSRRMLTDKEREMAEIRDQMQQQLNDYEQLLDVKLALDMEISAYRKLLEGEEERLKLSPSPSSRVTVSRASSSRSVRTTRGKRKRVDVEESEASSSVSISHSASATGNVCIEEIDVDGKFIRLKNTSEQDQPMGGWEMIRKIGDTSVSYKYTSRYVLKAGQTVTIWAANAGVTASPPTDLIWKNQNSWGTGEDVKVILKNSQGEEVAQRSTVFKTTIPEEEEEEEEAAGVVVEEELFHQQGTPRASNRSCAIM
# UniProt Q13263: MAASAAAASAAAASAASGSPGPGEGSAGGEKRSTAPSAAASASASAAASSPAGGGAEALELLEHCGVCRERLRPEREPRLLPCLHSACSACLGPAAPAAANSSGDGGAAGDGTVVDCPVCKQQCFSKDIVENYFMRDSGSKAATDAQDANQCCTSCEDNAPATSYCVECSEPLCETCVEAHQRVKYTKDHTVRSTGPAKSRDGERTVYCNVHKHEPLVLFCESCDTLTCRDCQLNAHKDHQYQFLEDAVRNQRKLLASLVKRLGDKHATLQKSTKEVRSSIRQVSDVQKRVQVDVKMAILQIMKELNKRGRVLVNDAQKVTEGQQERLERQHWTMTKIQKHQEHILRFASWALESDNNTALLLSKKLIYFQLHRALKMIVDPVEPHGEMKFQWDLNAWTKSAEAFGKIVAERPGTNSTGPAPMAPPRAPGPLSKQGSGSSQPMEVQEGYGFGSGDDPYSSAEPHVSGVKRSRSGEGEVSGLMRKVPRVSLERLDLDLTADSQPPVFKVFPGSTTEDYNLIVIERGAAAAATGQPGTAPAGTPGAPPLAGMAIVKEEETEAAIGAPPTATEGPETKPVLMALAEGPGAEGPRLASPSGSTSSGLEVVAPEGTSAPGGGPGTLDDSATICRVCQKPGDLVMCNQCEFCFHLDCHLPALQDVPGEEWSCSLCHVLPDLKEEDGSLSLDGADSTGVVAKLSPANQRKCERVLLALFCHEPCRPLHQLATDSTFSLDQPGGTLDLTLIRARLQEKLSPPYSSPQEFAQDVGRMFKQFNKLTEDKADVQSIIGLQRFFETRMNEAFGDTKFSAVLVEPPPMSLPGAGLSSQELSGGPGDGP
# T1: FLAG-HA-tagged full length C11orf46 (human) (UniProt Q8N8R7)
# T1 sequence: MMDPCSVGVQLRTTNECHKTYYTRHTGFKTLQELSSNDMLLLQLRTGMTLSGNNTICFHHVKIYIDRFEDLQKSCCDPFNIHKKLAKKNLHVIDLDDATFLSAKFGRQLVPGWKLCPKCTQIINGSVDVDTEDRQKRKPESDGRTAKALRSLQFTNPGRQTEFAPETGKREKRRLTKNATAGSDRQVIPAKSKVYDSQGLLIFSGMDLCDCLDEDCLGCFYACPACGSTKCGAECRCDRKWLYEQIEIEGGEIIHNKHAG
# B1: MCAF1 (endogenous, HEK293) (protein, UniProt Q6VMQ6 1-1270)
# chain: MDSLEEPQKKVFKARKTMRVSDRQQLEAVYKVKEELLKTDVKLLNGNHENGDLDPTSPLENMDYIKDKEEVNGIEEICFDPEGSKAEWKETPCILSVNVKNKQDDDLNCEPLSPHNITPEPVSKLPAEPVSGDPAPGDLDAGDPASGVLASGDSTSGDPTSSEPSSSDAASGDATSGDAPSGDVSPGDATSGDATADDLSSGDPTSSDPIPGEPVPVEPISGDCAADDIASSEITSVDLASGAPASTDPASDDLASGDLSSSELASDDLATGELASDELTSESTFDRTFEPKSVPVCEPVPEIDNIEPSSNKDDDFLEKNGADEKLEQIQSKDSLDEKNKADNNIDANEETLETDDTTICSDRPPENEKKVEEDIITELALGEDAISSSMEIDQGEKNEDETSADLVETINENVIEDNKSENILENTDSMETDEIIPILEKLAPSEDELTCFSKTSLLPIDETNPDLEEKMESSFGSPSKQESSESLPKEAFLVLSDEEDISGEKDESEVISQNETCSPAEVESNEKDNKPEEEEQVIHEDDERPSEKNEFSRRKRSKSEDMDNVQSKRRRYMEEEYEAEFQVKITAKGDINQKLQKVIQWLLEEKLCALQCAVFDKTLAELKTRVEKIECNKRHKTVLTELQAKIARLTKRFEAAKEDLKKRHEHPPNPPVSPGKTVNDVNSNNNMSYRNAGTVRQMLESKRNVSESAPPSFQTPVNTVSSTNLVTPPAVVSSQPKLQTPVTSGSLTATSVLPAPNTATVVATTQVPSGNPQPTISLQPLPVILHVPVAVSSQPQLLQSHPGTLVTNQPSGNVEFISVQSPPTVSGLTKNPVSLPSLPNPTKPNNVPSVPSPSIQRNPTASAAPLGTTLAVQAVPTAHSIVQATRTSLPTVGPSGLYSPSTNRGPIQMKIPISAFSTSSAAEQNSNTTPRIENQTNKTIDASVSKKAADSTSQCGKATGSDSSGVIDLTMDDEESGASQDPKKLNHTPVSTMSSSQPVSRPLQPIQPAPPLQPSGVPTSGPSQTTIHLLPTAPTTVNVTHRPVTQVTTRLPVPRAPANHQVVYTTLPAPPAQAPLRGTVMQAPAVRQVNPQNSVTVRVPQTTTYVVNNGLTLGSTGPQLTVHHRPPQVHTEPPRPVHPAPLPEAPQPQRLPPEAASTSLPQKPHLKLARVQSQNGIVLSWSVLEVDRSCATVDSYHLYAYHEEPSATVPSQWKKIGEVKALPLPMACTLTQFVSGSKYYFAVRAKDIYGRFGPFCDPQSTDVISSTQSS
# B2: LAP2A (endogenous, HEK293) (protein, UniProt P42166 1-694)
# chain: MPEFLEDPSVLTKDKLKSELVANNVTLPAGEQRKDVYVQLYLQHLTARNRPPLPAGTNSKGPPDFSSDEEREPTPVLGSGAAAAGRSRAAVGRKATKKTDKPRQEDKDDLDVTELTNEDLLDQLVKYGVNPGPIVGTTRKLYEKKLLKLREQGTESRSSTPLPTISSSAENTRQNGSNDSDRYSDNEEGKKKEHKKVKSTRDIVPFSELGTTPSGGGFFQGISFPEISTRPPLGSTELQAAKKVHTSKGDLPREPLVATNLPGRGQLQKLASERNLFISCKSSHDRCLEKSSSSSSQPEHSAMLVSTAASPSLIKETTTGYYKDIVENICGREKSGIQPLCPERSHISDQSPLSSKRKALEESESSQLISPPLAQAIRDYVNSLLVQGGVGSLPGTSNSMPPLDVENIQKRIDQSKFQETEFLSPPRKVPRLSEKSVEERDSGSFVAFQNIPGSELMSSFAKTVVSHSLTTLGLEVAKQSQHDKIDASELSFPFHESILKVIEEEWQQVDRQLPSLACKYPVSSREATQILSVPKVDDEILGFISEATPLGGIQAASTESCNQQLDLALCRAYEAAASALQIATHTAFVAKAMQADISQAAQILSSDPSRTHQALGILSKTYDAASYICEAAFDEVKMAAHTMGNATVGRRYLWLKDCKINLASKNKLASTPFKGGTLFGGEVCKVIKKRGNKH
# Target: T1, FLAG-HA-tagged full length C11orf46 (human)
# Experiment: affinity purification with mass spectrometry
row,Molecule,binding
1,"LMNB1 (endogenous, HEK293) (from UniProt P20700 1-586)",binds
2,"KAP1 (endogenous, HEK293) (from UniProt Q13263 1-835)",binds
3,B1,binds
4,B2,binds
